In all, about 1,000 compounds were measured (“thermal shift dTm”: median about 0.19, highest 2% from about 1.7 on). This is one part of the list. The source made the active and inactive calls.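 Rule for the calls: active = mean rise in melting temperature of at least 1 degC over same-plate control wells; inactive = below that, where a call was filed.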

The chains behind the UniProt entries cited, without tags or fusion partners. Where a name states a change or a piece, a line headed by the entry shows the natural chain unless it says otherwise.
UniProt O00391: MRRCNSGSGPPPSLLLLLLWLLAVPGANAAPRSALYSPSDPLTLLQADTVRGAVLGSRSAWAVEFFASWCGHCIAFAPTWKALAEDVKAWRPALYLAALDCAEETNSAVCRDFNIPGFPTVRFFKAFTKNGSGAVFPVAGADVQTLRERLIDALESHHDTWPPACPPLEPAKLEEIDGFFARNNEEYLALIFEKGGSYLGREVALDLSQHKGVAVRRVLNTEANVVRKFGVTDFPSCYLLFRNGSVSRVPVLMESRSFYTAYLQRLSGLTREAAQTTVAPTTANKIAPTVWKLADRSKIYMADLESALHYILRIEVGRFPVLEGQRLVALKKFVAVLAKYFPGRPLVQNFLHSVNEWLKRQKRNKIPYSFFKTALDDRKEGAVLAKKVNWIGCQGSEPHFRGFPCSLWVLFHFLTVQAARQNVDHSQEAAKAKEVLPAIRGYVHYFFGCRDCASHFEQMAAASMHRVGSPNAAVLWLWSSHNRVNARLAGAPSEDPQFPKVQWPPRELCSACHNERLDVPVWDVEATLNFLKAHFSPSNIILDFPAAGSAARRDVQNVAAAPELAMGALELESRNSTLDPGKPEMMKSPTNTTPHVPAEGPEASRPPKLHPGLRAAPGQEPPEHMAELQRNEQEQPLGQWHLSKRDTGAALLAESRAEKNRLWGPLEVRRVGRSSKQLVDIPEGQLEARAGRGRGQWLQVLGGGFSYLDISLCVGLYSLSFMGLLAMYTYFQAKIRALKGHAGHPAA

68 compounds from PubChem BioAssay AID1347422 (Sanford-Burnham Center for Chemical Genomics, 2020) can be followed below.

In this assay the target is Sulfhydryl oxidase 1 (Homo sapiens) (UniProt O00391). Kind of assay: ligand-induced melting shift of human QSOX1 – biophysical, protein thermal shift, single concentration, QSOX1 inhibitor project, confirmation (AID 1347422).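 Note: dTm is compound Tm minus mean Tm of DMSO-only wells on that plate.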 The note with it: recombinant hQSOX1 thermal shift, Sypro Orange, at 25 µM, stronger effect = higher value.
Consider `O=C(Cc1ccc(Cl)cc1)Nc1ccc(-c2nc3ccccc3s2)cc1`, for which the thermal shift dTm turned out to be 0.05 °C.
The figure for `Cc1ccc(OCCOCCOc2cccc3cccnc23)c(C(C)(C)C)c1` is 0.24 °C; for `O=S1(=O)CC2C(C1)N(c1cccc(C(F)(F)F)c1)C(=S)N2c1ccccc1` (stereo not drawn) it is inactive: -0.16 °C.
In the case of `Cc1nc(-c2cccc(NC(=O)c3cccc(F)c3)c2)cs1` it was active: 3.41 °C.
The figure for `O=C(CC(c1ccccc1)c1cc(Br)ccc1O)NCc1ccccc1Cl` (stereo not drawn) is 0.25 °C.
In the case of `CC(=O)Nc1ccc(NC(=O)c2cc3ccccc3o2)cc1`, the thermal shift dTm was active: 1.73 °C.
In the case of `COc1cccc(C(=O)NCCC(=O)Nc2cccc(F)c2)c1`, the thermal shift dTm was 0.23 °C.
The figure for `Cc1ccc(S(=O)(=O)Nc2cccc(NC(=O)c3cccs3)c2)cc1` is 0.48 °C.
In the case of `Cc1ccc2nc(-c3ccc(N=Cc4ccccc4O)cc3)sc2c1` it was 0.1 °C; in that of `COC(=O)c1ccc(N2CCN(CCNC(=O)Nc3ccc(OC)cc3)CC2)cc1`, 0.42 °C; in that of `COc1cc(/C=C2\N=C(SCc3ccccc3)SC2=O)ccc1OCc1ccccc1`, 0.63 °C.
For `CCOC(=O)c1ccc(NC(=S)NCC(O)c2ccccc2)cc1` (stereo not drawn), the thermal shift dTm came out at 0.1 °C.
The figure for `COc1ccccc1CCNC(=O)c1cc(Cc2ccccc2Cl)no1` is 0.05 °C; for `COc1cc(NC(=O)c2csc3ccccc23)cc(OC)c1OC` it is 0.27 °C.
Turning to `Cc1ccc(NC(=O)C(C)Sc2nc3c(c(=O)[nH]2)CCCC3)cc1Cl` (stereo not drawn), the thermal shift dTm was found to be 0.01 °C.
As for `CCC(C)C(=O)Nc1ccc(-c2nc3ccc(C(=O)c4ccccc4)cc3[nH]2)cc1` (stereo not drawn), the thermal shift dTm is inactive: -0.44 °C.
The figure for `CC(=O)c1[nH]c(C)c(-c2nc(C3(c4ccc(F)cc4)CCOC3)no2)c1C` (stereo not drawn) is 0.18 °C; for `Cc1cc(OCCn2cc(C(=S)N3CCOCC3)c3ccccc32)ccc1Cl` it is 0.02 °C.
In the case of `Cc1ccc(/C=C/C(=O)NCCNC(=O)/C=C/c2ccc(C)cc2)cc1` it was 0.77 °C.
Turning to `O=C(NC1CCCCC1)c1cccc(OCc2ccccc2Cl)c1`, the thermal shift dTm stood at 0.07 °C.
In the case of `O=C(Nc1ccc(Cl)cc1)NC1CC2CCC1C2` (stereo not drawn) it was 0.52 °C; in that of `CCC(=O)Nc1ccc(NC(=O)c2ccccc2C)c(O)c1`, 0.27 °C.
The figure for `CC(=O)Nc1ccc(C(=O)CSc2ccc3ccccc3n2)cc1` is active: 1.22 °C; for `COc1ccc(-c2[nH]ncc2Oc2ccccc2F)c(O)c1` it is 0.05 °C.
`COc1ccc(C(=O)Nc2nc(-c3cc(OC)ccc3OC)c(C)s2)cc1`: the thermal shift dTm was active: 2.73 °C.
As for `Cc1ccc(OCCOc2ccccc2C)c(/C=C2/N=C(c3cccs3)OC2=O)c1`, the thermal shift dTm was 0.16 °C.
The figure for `O=C(/C=C/c1ccco1)Nc1ccc(Br)cc1F` is 0.01 °C; for `O=C(CCCc1c[nH]c2ccccc12)NCCOc1ccc(Cl)cc1` it is inactive: -0.03 °C.
Turning to `Cc1cc(N(C)C)nc(N2CCN(C(=O)Nc3cccc(F)c3)CC2)n1`, the thermal shift dTm is inactive: -0.08 °C.
In the case of `COc1ccc(C(=O)Nc2ccc(Cl)c(C)n2)cc1Cl` it was active: 1.85 °C.
In the case of `O=C(Nc1ccc(Cl)cn1)c1cccc(NC(=O)c2cccs2)c1` it was 0.37 °C.
In the case of `N#CCCn1cc(C(=O)Nc2nccs2)c(-c2cc3ccccc3o2)n1` it was 0.38 °C; in that of `Cc1cc(Br)c(-c2ccc(/C=C3/SC(N)=NC3=O)o2)cc1C`, active: 1.03 °C; in that of `Cc1cccc(NC(=O)Nc2ccc(C(N)=O)cc2)c1C`, 0.6 °C.
As to `NC(=O)c1cn(-c2ccccc2)nc1-c1cccc(Br)c1`, the thermal shift dTm is inactive: -0.72 °C.
In the case of `CSC1=N/C(=C\c2ccc(-c3ccc(Br)cc3)o2)C(=O)S1`, the thermal shift dTm is 0.3 °C.
In the case of `COc1c(C)cccc1C(=O)Nc1cccc2cccnc12` it was inactive: -0.09 °C; in that of `CN(C)c1nc2n(c(=O)n1)CCN2C(=O)Nc1ccccc1`, 0 °C; in that of `CCOc1ccc(NC(=O)CSc2c(-c3ccccc3)c3cc(Cl)ccc3[nH]c2=O)cc1`, 0.68 °C.
The figure for `O=C(CN(c1ccccc1F)S(=O)(=O)c1ccccc1)Nc1ccc(F)cc1F` is inactive: -0.03 °C; for `Cc1cc(Br)ccc1OCCCCn1cnc2ccccc2c1=O` it is 0.17 °C.
In the case of `O=C(COc1ccc(Cl)cc1)Nc1cccc(NC(=O)c2ccco2)c1` it was 0.71 °C; in that of `Nc1cccc(/C=C/C(=O)c2ccccc2)c1`, 0.57 °C; in that of `Cc1cccc(NC(=O)c2ccc(NC(=O)c3ccccc3)cc2)n1`, 0.32 °C.
Consider `CCC(C)c1ccccc1OCC(=O)Nc1cccc(NC(C)=O)c1` (stereo not drawn), for which the thermal shift dTm came to 0.41 °C.
The figure for `CCn1c(SCC(=O)Nc2ccc3c(c2)OCO3)nc2sc(C)c(C)c2c1=O` is inactive: -0.04 °C.
For the compound `CCC(=O)Nc1nc(-c2cccc(NC(=O)c3cccnc3)c2)cs1`, the thermal shift dTm turned out to be 0.18 °C.
In the case of `CCOc1ccc(N2C(=O)N(c3ccc(C)cc3)C3CS(=O)(=O)CC32)cc1` (stereo not drawn) it was 0.21 °C; in that of `COc1ccc(-c2n[nH]c(C)c2Oc2ccc(F)cc2)c(O)c1`, inactive: -0.09 °C; in that of `COc1cc(C=Nc2ccc(-c3nc4ccc(C)cc4s3)cc2)ccc1O`, 0.05 °C.
In the case of `COc1ccc(Br)c(/C=C/c2ccc3cccc(O)c3n2)c1` it was inactive: -0.13 °C.
In the case of `CC(=O)Oc1ccc(-c2csc(Nc3ccccn3)n2)cc1` it was 0.21 °C; in that of `Cc1ccccc1COc1ccc(Br)cc1/C=C1/N=C(c2ccco2)OC1=O`, 0.82 °C; in that of `c1ccc(COc2ccc(-c3noc(-c4ccccn4)n3)cc2)cc1`, 0.01 °C.
Consider `COc1ccc(OCC(=O)Nc2cccc(-c3cnc4ccccc4n3)c2)cc1`, for which the thermal shift dTm came out at 0.16 °C.
`Cc1cc(-n2nc(C)cc2C)nc(-c2ccccc2O)n1`: the thermal shift dTm was found to be 0.04 °C.
The figure for `NC(=O)c1ccc(-c2cccc(-c3ccn[nH]3)c2)cc1` is 0.42 °C; for `COc1ccc(Nc2c(C(=O)O)cnc3ccc(Cl)cc23)cc1Cl` it is 0.34 °C; for `COc1ccc2[nH]cc(CCNC(=O)c3ccc(NC(C)=O)cc3)c2c1` it is active: 1 °C.
Regarding `Cc1ccc(C2Nc3c(C)ccc(C(=O)O)c3C3C=CCC32)cc1` (stereo not drawn), the thermal shift dTm is active: 1.51 °C.
In the case of `O=C(Nc1cccc(-c2noc(CCc3ccccc3)n2)c1)c1cccs1` it was 0.1 °C.
In the case of `CCCCC1=NN2C(=N)/C(=C/c3ccc(OC(=O)c4ccc(F)cc4)c(OC)c3)C(=O)N=C2S1` it was 0.16 °C; in that of `COc1ccccc1NC(=O)N1c2ccccc2Sc2ccccc21`, inactive: -0.03 °C.
For `CCCSC1=N/C(=C\c2ccc(-c3ccc(Cl)cc3)o2)C(=O)S1`, the thermal shift dTm was found to be 0.95 °C.
In the case of `O=S(=O)(NCCC1=CCCCC1)c1ccc(Cl)s1` it was 0.17 °C; in that of `C=CC(C)(C)OCC(O)CN1C(C)(C)CC(O)CC1(C)C` (stereo not drawn), 0.13 °C; in that of `Cc1ccc(Cl)c(OCc2nnc3n2N=C(c2ccccc2)CS3)c1`, 0.25 °C.
In the case of `O=C(Nc1cccc(-c2nn[nH]n2)c1)c1cc2c(s1)CCCCC2` it was 0.7 °C.
